The target of the assay is NLRP3 full-length-mCitrine (in iMos) (human) (UniProt Q96P20). The assay can be described thus: co-IP; iMos stably expressing NLRP3-mCitrine variants; IP in GFP-trap plates, 2.5 h at 4 °C shaking; endogenous NEK7 detected by immunoblot; for activated co-IP cells primed with LPS, CRID3 and YVAD added, nigericin 20 min.

The chains behind the UniProt entries cited, without tags or fusion partners.
UniProt Q96P20: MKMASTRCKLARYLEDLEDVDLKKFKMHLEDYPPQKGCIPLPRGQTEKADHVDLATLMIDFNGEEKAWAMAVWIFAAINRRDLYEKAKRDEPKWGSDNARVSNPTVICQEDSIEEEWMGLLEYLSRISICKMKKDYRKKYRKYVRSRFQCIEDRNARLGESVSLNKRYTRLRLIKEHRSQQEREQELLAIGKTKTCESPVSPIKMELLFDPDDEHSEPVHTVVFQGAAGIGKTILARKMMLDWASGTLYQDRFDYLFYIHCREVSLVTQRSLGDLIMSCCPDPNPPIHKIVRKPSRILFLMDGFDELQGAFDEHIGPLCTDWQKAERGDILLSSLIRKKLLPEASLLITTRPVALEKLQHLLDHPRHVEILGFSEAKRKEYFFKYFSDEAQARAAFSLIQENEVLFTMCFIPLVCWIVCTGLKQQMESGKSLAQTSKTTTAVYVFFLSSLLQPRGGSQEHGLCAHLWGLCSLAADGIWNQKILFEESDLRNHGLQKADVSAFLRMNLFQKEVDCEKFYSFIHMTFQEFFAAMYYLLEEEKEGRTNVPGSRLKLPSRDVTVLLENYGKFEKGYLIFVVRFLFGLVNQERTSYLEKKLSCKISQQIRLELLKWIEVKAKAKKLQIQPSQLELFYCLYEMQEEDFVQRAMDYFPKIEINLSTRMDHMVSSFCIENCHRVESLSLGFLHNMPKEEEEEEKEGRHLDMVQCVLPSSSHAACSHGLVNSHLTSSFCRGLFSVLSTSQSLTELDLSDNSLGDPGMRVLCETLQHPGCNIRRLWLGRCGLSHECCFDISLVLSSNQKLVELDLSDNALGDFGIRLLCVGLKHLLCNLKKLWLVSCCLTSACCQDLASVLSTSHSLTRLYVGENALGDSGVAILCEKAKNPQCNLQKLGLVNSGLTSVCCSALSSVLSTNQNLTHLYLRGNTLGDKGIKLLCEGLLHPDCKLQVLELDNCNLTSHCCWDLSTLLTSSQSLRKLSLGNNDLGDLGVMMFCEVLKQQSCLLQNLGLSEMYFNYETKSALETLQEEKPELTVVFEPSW
UniProt Q9ES74: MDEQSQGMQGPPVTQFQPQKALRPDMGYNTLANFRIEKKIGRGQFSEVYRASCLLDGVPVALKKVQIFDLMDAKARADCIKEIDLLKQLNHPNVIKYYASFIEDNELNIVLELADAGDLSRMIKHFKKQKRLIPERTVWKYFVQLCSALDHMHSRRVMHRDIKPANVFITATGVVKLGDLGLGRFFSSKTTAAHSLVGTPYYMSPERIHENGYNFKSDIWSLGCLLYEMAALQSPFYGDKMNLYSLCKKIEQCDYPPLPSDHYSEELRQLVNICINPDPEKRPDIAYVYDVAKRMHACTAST

Results are given in words; binding and its absence hold for the method and conditions named. Binding seen in cells or lysates may run through a third protein. Some results given as binding are weak or reduced against the parent protein; the word gives no strength.

With “NEK7, endogenous in mouse immortalized macrophages (from UniProt Q9ES74 1-302)”, the binding entry was “binds”.

For the origin of these results see article PMC6642158.
